This assay has as its target eukaryotic translation initiation factor 4E (eIF4E) (human (endogenous in PC-3)) (UniProt P06730). As to the kind of experiment: co-IP; 1 mg PC-3 lysate incubated with rabbit anti-eIF4E antibody O/N at 4 °C, Trueblot anti-rabbit Ig IP beads, Western blot for Hsp27; cells treated for 48 h with DMSO (control), phenazine #14, DOTAU, DOU-PEG2000, NP DOTAU-phenazine #14 or NP DOU-PEG2000-phenazine #14 at 100 µM. Background: In western blotting, separated proteins are transferred to a membrane and probed.

The chains behind the UniProt entries cited, without tags or fusion partners.
UniProt P06730: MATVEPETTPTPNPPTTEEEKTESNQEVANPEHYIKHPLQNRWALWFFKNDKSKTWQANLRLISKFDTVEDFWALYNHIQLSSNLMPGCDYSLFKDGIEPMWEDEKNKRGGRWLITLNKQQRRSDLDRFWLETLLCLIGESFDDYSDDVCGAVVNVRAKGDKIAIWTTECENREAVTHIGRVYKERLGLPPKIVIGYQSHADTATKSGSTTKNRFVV
UniProt P04792: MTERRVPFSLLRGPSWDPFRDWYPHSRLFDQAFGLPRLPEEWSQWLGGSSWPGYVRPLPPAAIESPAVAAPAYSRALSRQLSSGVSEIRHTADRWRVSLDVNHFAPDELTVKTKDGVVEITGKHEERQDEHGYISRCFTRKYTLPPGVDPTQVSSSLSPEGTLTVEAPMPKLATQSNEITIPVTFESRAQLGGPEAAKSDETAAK

The source of these data is paper PMC8146835.

No constants are given. Whether binding was seen depends on the method and setting. In cells and extracts the contact can be indirect. Some results given as binding are weak or reduced against the parent protein; the word gives no strength.

Consider “Heat shock protein 27 (Hsp27) (from UniProt P04792 1-205)”, for which the binding result was “binds”.
